Data from US20240352134A1.
Results are given in words; binding and its absence hold for the method and conditions named. Some binding calls cover weakened binding; strength is not graded here.

By UniProt entry, the sequences of proteins in these tests, tags left out. Where a name states a change or a piece, a line headed by the entry shows the natural chain unless it says otherwise. Chains listed by the source or under a name are the forms on record and can include a tag or linker.
cynomolgus CCR8 (G7NYJ2, form named): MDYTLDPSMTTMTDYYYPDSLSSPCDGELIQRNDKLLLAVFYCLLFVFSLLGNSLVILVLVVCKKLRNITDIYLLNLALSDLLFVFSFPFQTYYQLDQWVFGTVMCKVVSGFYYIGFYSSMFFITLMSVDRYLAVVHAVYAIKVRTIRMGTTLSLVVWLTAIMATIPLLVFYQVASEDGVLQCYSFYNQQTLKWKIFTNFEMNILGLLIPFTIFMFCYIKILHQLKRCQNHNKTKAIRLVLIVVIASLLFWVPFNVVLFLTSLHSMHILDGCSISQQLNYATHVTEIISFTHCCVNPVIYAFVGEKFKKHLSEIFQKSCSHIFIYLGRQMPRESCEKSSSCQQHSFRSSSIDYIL
UniProt P51685: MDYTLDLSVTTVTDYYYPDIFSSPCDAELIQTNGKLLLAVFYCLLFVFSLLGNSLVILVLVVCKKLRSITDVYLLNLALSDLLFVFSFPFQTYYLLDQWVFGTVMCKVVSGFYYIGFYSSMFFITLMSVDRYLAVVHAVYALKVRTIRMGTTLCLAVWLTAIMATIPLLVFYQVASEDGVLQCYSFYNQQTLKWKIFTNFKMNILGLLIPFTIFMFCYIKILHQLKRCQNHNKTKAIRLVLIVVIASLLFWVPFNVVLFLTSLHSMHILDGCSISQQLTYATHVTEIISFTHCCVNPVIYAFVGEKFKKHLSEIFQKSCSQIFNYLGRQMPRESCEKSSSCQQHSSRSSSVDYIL

Legend:
[1] = target: cynomolgus CCR8 (cynomolgus) (UniProt G7NYJ2); test: species cross reactivity, comparison of Table 12
[2] = target: T1, rat CCR8 (rat) (UniProt D4ADE0); test: species cross reactivity, comparison of Table 12
T1 sequence: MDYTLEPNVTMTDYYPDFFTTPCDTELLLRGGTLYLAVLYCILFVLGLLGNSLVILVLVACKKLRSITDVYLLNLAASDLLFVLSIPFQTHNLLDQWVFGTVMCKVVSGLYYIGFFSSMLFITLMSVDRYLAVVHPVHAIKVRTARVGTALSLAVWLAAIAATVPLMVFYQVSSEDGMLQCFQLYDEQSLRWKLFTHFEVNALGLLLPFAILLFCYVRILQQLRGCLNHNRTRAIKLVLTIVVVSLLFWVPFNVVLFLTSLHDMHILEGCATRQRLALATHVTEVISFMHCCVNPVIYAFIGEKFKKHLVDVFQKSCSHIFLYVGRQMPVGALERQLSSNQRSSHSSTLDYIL

[3] = target: cynomolgus CCR8 (cynomolgus) (UniProt G7NYJ2); test: flow cytometry on CCR8-overexpressing cells
[4] = target: T1, rat CCR8 (rat); test: flow cytometry on CCR8-overexpressing cells
[5] = target: T1, rat CCR8 (rat); test: FACS binding analysis (FIG. 4B)
[6] = target: cynomolgus CCR8 (cynomolgus) (UniProt G7NYJ2); test: FACS binding analysis (FIG. 4E)
[7] = target: cynomolgus CCR8 (cynomolgus) (UniProt G7NYJ2); test: flow cytometry on cynomolgus CCR8-overexpressing 293F cells
[8] = target: human CCR8 (human) (UniProt P51685); test: FACS on human CCR8-expressing 293F cells

B1: 3F11hz4 (antibody, V domains shown)
VH: EVQLVESGGGLVQPGGSLKLSCAASGFSFNTYAMNWVRQASGKGLEWVGRIRSKSNYYATYYAASVKGRFTISRDDSKSTLYLQMNSLKTEDTAVYYCVRGRELGDYYAMDYWGQGTLVTVSS
VL: DIVMTQSPLSLPVTPGEPASISCRSSKSLLHSNGNTYLYWFLQKPGQSPQLLIYRMSNLASGVPDRFSGSGSGTDFTLKISRVEAEDVGVYYCMQHLEYPFTFGQGTKLEIK
**Q.** B1 was tested. Which binding [1] did it give?
**A.** Its binding is “binds”.

**Q.** What about the binding [2] of the same binder?
**A.** The binding was “binds”.

**Q.** And the binding [3]?
**A.** Its binding is “binds”.

**Q.** And the binding [4]?
**A.** Its binding is “binds”.

**Q.** And the binding [5]?
**A.** The binding was “binds”.

**Q.** And the binding [6]?
**A.** Its binding is “binds”.

B2: 84B4 (antibody, V domains shown)
VH: EVQLQQSGPVLVKPGASVKMSCKASGFTITDYYFNWVKQSHGKSLEWIGIINPYNGVARYKQKFKGKATLTVDKSSSTVYLEFSGLTSEDSAVYYCVRFVYGTTYDYAMDYWGQGTSVTVSS
VL: DVLMTQTPLSLPVSLGDQASISCRSSQSIVHSNGNTYLEWYVQKPGQSPKLLIYKVSNRFSGVPDRFSGSGSGTDFTLKISRVEAEDLGVYYCFQGSHVPPTFGGGTKLEIK
**Q.** How did the binding [7] turn out when B2 was run?
**A.** Its binding is “binds”.

B3: 3C11 (antibody, V domains shown)
VH: EFQLQQSGPELVKPGASVKISCKTSGYSFTDYNINWVKQSNGKSLEWIGLINPNHGTTKSNQKFKGKATLTVDQSSSTAYMQLSSLTSEDSAVYYCARHDYDGAYWGQGTLVTVSA
VL: DVVMTQTPLSLPVSLGDQASISCRSSQSLIHSNGNTYLHWYLQKPGQSPKLLIYKISNRFSGVPDRFSGSGSGTDFTLKISRVEAEDLGVYFCSQSTRAPWTFGGGTKLEIK
**Q.** With B3 as the binder, how does the binding [7] read?
**A.** Its binding is “binds”.

B4: 3O20 (antibody, V domains shown)
VH: EVQLVESGGGLVQPKGSLKLSCATSGFSFNAYAMNWVRQAPGKGLEWVGRIRSKSNNYATYYADSVKGRFTISRDDSKTILYLQMNTLKTEDTAIYYCVRGGYHGNSAYFDVWGTGTSVTVSS
VL: DIVMTQAAPSVPVTPGESVSISCRSSKSLLHSNGNTYLYWFLQRPGQSPQLLIYRMSNLASGVPDRFSGSGSGTAFTLRISRVEAEDVGVYYCLQHLEYPFTFGSGTKLEIK
**Q.** How did the binding [7] turn out when B4 was run?
**A.** Its binding is “binds”.

B5: 3F11 (antibody, V domains shown)
VH: EVQLVESGGGLVQPKGSLKLSCAASGFSFNTYAMNWVRQAPGKGLEWVARIRSKSNYYATYYADSVKDRFTISRDDSESMLYLQMNNLKTEDTAMYYCVRGRELGDYYAMDYWGQGTSVTVSS
VL: DIVMTQAAPSVPVTPGESVSISCRSSKSLLHSNGNTYLYWFLQRPGQSPQLLIYRMSNLASGVPNRFSGSGSGTAFTLRISRVEAEDVGVYYCMQHLEYPFTFGSGTKLEIK
**Q.** Which binding [7] does the source give for B5 here?
**A.** The binding was “binds”.

B6: 4G19 (antibody, V domains shown)
VH: EVQFVESGGGLVQPKGSLKLSCAASGFSFNTYAMNWVRQAPGKGLEWVARIRTKSNNYATHYADSVTDRFIVSRDDSESMTYLQMNNLKTEDTGMYYCVRGGNGIYGRNTMDNWGQGTSVTVSS
VL: DIVMTQTAPSVPVSPGESVSISCRSSKSLLHSSGNTYLYWFLQRPGQSPQLLIYRMSNLASGVPDRFSGSGSGTAFTLRISRVEAEDVGVYYCMQHLEYPFTFGGGTKLEIQ
**Q.** Which binding [7] does the source give for B6 here?
**A.** The binding was “binds”.

B7: 1G17hz1 (antibody, V domains shown)
VH: QVQLVQSGAEVKKPGASVKVSCKASGYTFADYYMHWVRQAPGQGLEWMGAIDPETGRTAYAQKFQGRVTMTRDTSTSTVYMELSSLRSEDTAVYYCARRAYWGGWGQGTLVTVSS
VL: DVVMTQSPLSLPVTLGQPASISCRSSQSLVHSSGNTYLHWFQQRPGQSPRRLIYKVSNRFSGVPDRFSGSGSGTDFTLKISRVEAEDVGVYYCSQSTHVPYTFGQGTKLEIK
**Q.** With B7 as the binder, how does the binding [8] read?
**A.** Its binding is “no binding”.
